Reference: PubChem BioAssay AID330 (DTP/NCI, 2004)
The list shows only some results of the screen, not a fair sample: it is rich in T/C values a quarter to a half above the control, in often repeated tests (any T/C) and in doses without a T/C. Further doses and runs are listed elsewhere. T/C: endpoint of the treated group in % of that of the vehicle group. Some entries give survivors of the animals treated and no T/C: the source files T/C as zero there, which appears to mark a toxic dose or a test without result, not a measured value. Some doses without a T/C left all or most animals alive at the check, yet need not have been tolerated: survival well below the control is almost never listed, so the zero probably covers shortened survival too. Survivors were counted at the toxicity check, usually on the fifth day, unless a day is given; later deaths do not show. Schedules are NCI's codes, read here as Q, the interval in days (D) or hours (H), X, the number of doses. Some structures stand for samples that the source files as different forms (salt, stereo form or complex); doses refer to the form tested. Some doses were run more than once; their values stand side by side, smallest first. Where survival is the endpoint, the PubChem record calls one and a half times the control and up active, and a quarter to a half above the control has no call in these data; cut-offs in other NCI protocols can differ. Some T/C values are followed by the survivors on the day toxicity was checked, most often the fifth; where none is given, no animal had died by that day.

System: P388 leukemia ip, CD2F1 mice, survival T/C
Experiment: NCI In Vivo Anticancer Drug Screen. Data for tumor model P388 Leukemia (intraperitoneal) in CD2F1 (CDF1) mice
Conditions: T/C endpoint: median survival time, higher T/C = longer survival
[1] = dose: 200.0 mg/kg/injection, schedule: Q01DX009 (ip), vehicle: Klucel (hydroxypropylcellulose) (HPC)
[2] = dose: 240.0 mg/kg/injection, schedule: Q01DX005 (ip), vehicle: saline with Tween-80
[3] = dose: 200.0 mg/kg/injection, schedule: Q01DX005 (ip), vehicle: Klucel (hydroxypropylcellulose) (HPC)
[4] = dose: 200.0 mg/kg/injection, schedule: Q01DX009 (ip), vehicle: saline
[5] = dose: 50.0 mg/kg/injection, schedule: Q01DX009 (ip), vehicle: other
[6] = dose: 50.0 mg/kg/injection, schedule: Q01DX005 (ip), vehicle: saline with Tween-80
[7] = dose: 100.0 mg/kg/injection, schedule: Q01DX005 (ip), vehicle: saline with Tween-80
[8] = dose: 200.0 mg/kg/injection, schedule: Q01DX005 (ip), vehicle: saline with Tween-80
[9] = dose: 400.0 mg/kg/injection, schedule: Q04DX002 (ip), vehicle: Klucel (hydroxypropylcellulose) (HPC)
[10] = dose: 100.0 mg/kg/injection, schedule: Q01DX005 (ip), vehicle: Klucel (hydroxypropylcellulose) (HPC)

## Nc1ncnc2c1C=C(B(O)O)B(O)N2
dose: 50.0 mg/kg/injection, schedule: Q01DX009 (ip), vehicle: Klucel (hydroxypropylcellulose) (HPC)
  survivor count: 2 of 6
dose: 100.0 mg/kg/injection, schedule: Q01DX009 (ip), vehicle: Klucel (hydroxypropylcellulose) (HPC)
  survivor count: 0 of 6
[1]
  survivor count: 0 of 6

## CSc1nc(NC2OCC(O)C(O)C2O)c(C=O)c(=O)n1C (centres undefined)
[2]
  survivor count: 5 of 6

## C[CH2][Ge]([CH2]C)[CH2]/C(C)=C(/C)[CH2][Ge]([CH2]C)[CH2]C
dose: 200.0 mg/kg/injection, schedule: Q01DX009 (ip), vehicle: saline with Tween-80
  survivor count: 6 of 6

## CCC12CN3CCc4c([nH]c5ccccc45)C(C(=O)OC)(c4cc5c(cc4OC)N(C)C4C(O)(C(=O)OC)C(OC(C)=O)C6(CC)C=CCN7CCC54C76)CC(C3=O)C1O2 (centres undefined)
dose: 4.0 mg/kg/injection, schedule: Q01DX001 (ip), vehicle: water
  T/C: 125 % of control
dose: 8.0 mg/kg/injection, schedule: Q01DX001 (ip), vehicle: water
  T/C: 131 and 133 % of control
dose: 16.0 mg/kg/injection, schedule: Q01DX001 (ip), vehicle: water
  T/C: 144 and 149 % of control
dose: 32.0 mg/kg/injection, schedule: Q01DX001 (ip), vehicle: water
  T/C: 148 % of control
dose: 64.0 mg/kg/injection, schedule: Q01DX001 (ip), vehicle: water
  survivor count: 1 of 6

## COc1ccc2nc3cc(Cl)ccc3c(NC(C)CCCN(C)C)c2n1 (centres undefined)
dose: 200.0 mg/kg/injection, schedule: Q01DX005 (ip), vehicle: saline
  survivor count: 0 of 6

## CCN(CC)CC(O)c1cc(-c2ccccc2)nc2ccc(OC)cc12 (centres undefined)
[3]
  survivor count: 0 of 6

## O=C(c1ccccc1)C(CN1CCOCC1)CN1CCOCC1
[4]
  survivor count: 0 of 6

## COc1ccc(OC)c2c1CCC(O)(C#N)C2 (centres undefined)
dose: 1.56 mg/kg/injection, schedule: Q01DX009 (ip), vehicle: other
  survivor count: 6 of 6
dose: 12.5 mg/kg/injection, schedule: Q01DX009 (ip), vehicle: other
  survivor count: 6 of 6
dose: 25.0 mg/kg/injection, schedule: Q01DX009 (ip), vehicle: other
  survivor count: 1 of 6 and 3 of 6
[5]
  survivor count: 0 of 6

## Cc1cc(NCCCCCCNc2cc(C)[n+](C)c3c(Cl)cccc23)c2cccc(Cl)c2[n+]1C
[6]
  survivor count: 0 of 5
[7]
  survivor count: 0 of 5
[8]
  survivor count: 0 of 5

## ClCC[N+]12CC[N+](CCCl)(CC1)C2 (tested in a mixture with another compound)
dose: 25.0 mg/kg/injection, schedule: Q01DX009 (ip), vehicle: water
  T/C: 127 % of control
dose: 50.0 mg/kg/injection, schedule: Q01DX005 (ip), vehicle: saline
  T/C: 129 and 132 % of control
dose: 50.0 mg/kg/injection, schedule: Q01DX009 (ip), vehicle: water
  T/C: 132 % of control
dose: 200.0 mg/kg/injection, schedule: Q01DX009 (ip), vehicle: water
  survivor count: 5 of 6
dose: 400.0 mg/kg/injection, schedule: Q01DX005 (ip), vehicle: saline
  survivor count: 0 of 5

## COC(=O)C(CCC1CCCCN1)(c1ccccc1)c1ccccc1 (centres undefined)
dose: 50.0 mg/kg/injection, schedule: Q04DX003 (ip), vehicle: saline with Tween-80
  T/C: 130 % of control
dose: 150.0 mg/kg/injection, schedule: Q04DX003 (ip), vehicle: saline with Tween-80
  survivor count: 5 of 6

## CCN(CC)CC(C)Nc1ccc(C)c2sc3ccccc3c(=O)c12 (centres undefined)
dose: 150.0 mg/kg/injection, schedule: Q01DX009 (ip), vehicle: saline
  T/C: 145 % of control [5 of 6 alive]

## COC1=C(C)C(=O)c2c(c(C=O)c(Cl)n2C)C1=O
dose: 400.0 mg/kg/injection, schedule: Q01DX001 (ip), vehicle: Klucel (hydroxypropylcellulose) (HPC)
  survivor count: 3 of 6

## CC1(C)CC(OP2(=O)NCCCO2)CC(C)(C)N1O (centres undefined)
dose: 13.75 mg/kg/injection, schedule: Q01DX001 (ip), vehicle: saline
  T/C: 133 % of control

## O=C(CCl)Nc1cccc(CCC(=O)c2ccccc2NC(=O)CCl)c1
dose: 120.0 mg/kg/injection, schedule: Q01DX005 (ip), vehicle: saline with Tween-80
  survivor count: 3 of 6
[2]
  survivor count: 0 of 6

## COc1cc(/C=N/O)c(SC)cc1OC
[9]
  T/C: 126 % of control [4 of 5 alive]

## CNCCCCCc1cc(-c2ccc([N+](=O)[O-])cc2)n[nH]1
dose: 200.0 mg/kg/injection, schedule: Q04DX003 (ip), vehicle: saline with Tween-80
  survivor count: 5 of 6
dose: 400.0 mg/kg/injection, schedule: Q04DX003 (ip), vehicle: saline with Tween-80
  survivor count: 0 of 6

## CC1CC(C)C(C)C(C)(CN(C)C)C1 (centres undefined)
[7]
  survivor count: 3 of 5
[8]
  survivor count: 0 of 5

## O=C1CCc2cc([N+](=O)[O-])cc3c2N1CCC3
[10]
  survivor count: 5 of 5

## C[N+](C)(C)CCCCCCN
[4]
  survivor count: 2 of 6

## O=C(NC1CCCCC1(O)c1ccc([N+](=O)[O-])cc1)C(Cl)Cl (centres undefined)
[9]
  survivor count: 6 of 6

## O=S(=O)(CCNCCCCC1CCCCC1)SCCNCCCCC1CCCCC1
dose: 50.0 mg/kg/injection, schedule: Q01DX005 (ip), vehicle: Klucel (hydroxypropylcellulose) (HPC)
  survivor count: 1 of 5
[10]
  survivor count: 5 of 5
[3]
  survivor count: 5 of 5

## CCCCN(CCCC)Cc1c(C)[nH]c2ccc(N(C)C)cc2c1=O
dose: 200.0 mg/kg/injection, schedule: Q01DX009 (ip), vehicle: suspension in saline
  survivor count: 0 of 6

## [CH3][Sn]1([Cl])[O]CCNCC[O]1
[3]
  T/C: 125 % of control

## Cc1cc2c(cc1NCc1ccccc1)C(C)C(=O)CCC(=O)N2Cc1ccccc1 (centres undefined)
[7]
  survivor count: 6 of 6
[8]
  survivor count: 6 of 6

## C[C@]12CCC(=O)C[C@@H]1CC[C@@H]1[C@@H]2CC[C@]2(C)[C@@H](OC(=O)N(CCCl)N=O)CC[C@@H]12
dose: 6.25 mg/kg/injection, schedule: Q01DX009 (ip), vehicle: saline
  survivor count: 6 of 6
dose: 12.5 mg/kg/injection, schedule: Q01DX009 (ip), vehicle: saline
  survivor count: 5 of 6
dose: 15.6 mg/kg/injection, schedule: Q04DX003 (ip), vehicle: saline
  T/C: 136 % of control
dose: 31.2 mg/kg/injection, schedule: Q04DX003 (ip), vehicle: saline
  T/C: 145 % of control
[5]
  T/C: 130 % of control
dose: 62.5 mg/kg/injection, schedule: Q04DX003 (ip), vehicle: saline
  T/C: 146 % of control [5 of 6 alive]
dose: 125.0 mg/kg/injection, schedule: Q04DX003 (ip), vehicle: saline
  T/C: 135 and 145 % of control

## C=CCn1c(=O)n(C)c(=O)c2[nH]c(Cl)nc21
[1]
  survivor count: 3 of 6

## Cc1cccc(Nc2c(C(=O)O)cnc3cc4c(cc23)OCO4)c1C
dose: 60.0 mg/kg/injection, schedule: Q01DX005 (ip), vehicle: Klucel (hydroxypropylcellulose) (HPC)
  survivor count: 6 of 6

## O=C1CSC(=Nc2ccccc2F)N1c1ccccc1F
[1]
  survivor count: 2 of 6

## CCNc1ccc2c(-c3ccccc3C(=O)O)c3ccc(=[N+](CC)CC)cc-3oc2c1
[8]
  survivor count: 1 of 5

## c1ccc(CCC(Cc2cccnc2)c2ccccn2)nc1 (centres undefined)
dose: 400.0 mg/kg/injection, schedule: Q04DX002 (ip), vehicle: saline
  survivor count: 1 of 6

## C1CCNCC1.CC(=O)[C-](C(C)=O)c1ccccc1.CC(=O)[C-](C(C)=O)c1ccccc1.CC(=O)[C-](C(C)=O)c1ccccc1.CC(=O)[C-](C(C)=O)c1ccccc1.[Eu+3]
dose: 200.0 mg/kg/injection, schedule: Q04DX002 (ip), vehicle: Klucel (hydroxypropylcellulose) (HPC)
  survivor count: 6 of 6

## N#CC=Cc1ccc([N+](=O)[O-])s1 (mixture of isomers)
[6]
  T/C: 130 and 131 % of control
[7]
  survivor count: 3 of 6 and 4 of 6
[8]
  survivor count: 0 of 6

## c1ccc(-c2ccc(NCCN3CCOCC3)nn2)cc1
dose: 240.0 mg/kg/injection, schedule: Q01DX005 (ip), vehicle: Klucel (hydroxypropylcellulose) (HPC)
  survivor count: 6 of 6
